The record followed here is publication PMC7670567.

Sequences of proteins named here, by UniProt entry; tags and fusion partners are left off.
UniProt P01127: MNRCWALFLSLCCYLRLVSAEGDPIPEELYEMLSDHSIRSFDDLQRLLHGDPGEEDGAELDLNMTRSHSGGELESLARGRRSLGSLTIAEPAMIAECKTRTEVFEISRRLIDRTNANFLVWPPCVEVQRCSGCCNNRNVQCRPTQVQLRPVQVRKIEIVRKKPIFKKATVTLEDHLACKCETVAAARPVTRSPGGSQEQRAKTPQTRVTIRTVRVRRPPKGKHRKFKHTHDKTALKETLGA
UniProt Q13489: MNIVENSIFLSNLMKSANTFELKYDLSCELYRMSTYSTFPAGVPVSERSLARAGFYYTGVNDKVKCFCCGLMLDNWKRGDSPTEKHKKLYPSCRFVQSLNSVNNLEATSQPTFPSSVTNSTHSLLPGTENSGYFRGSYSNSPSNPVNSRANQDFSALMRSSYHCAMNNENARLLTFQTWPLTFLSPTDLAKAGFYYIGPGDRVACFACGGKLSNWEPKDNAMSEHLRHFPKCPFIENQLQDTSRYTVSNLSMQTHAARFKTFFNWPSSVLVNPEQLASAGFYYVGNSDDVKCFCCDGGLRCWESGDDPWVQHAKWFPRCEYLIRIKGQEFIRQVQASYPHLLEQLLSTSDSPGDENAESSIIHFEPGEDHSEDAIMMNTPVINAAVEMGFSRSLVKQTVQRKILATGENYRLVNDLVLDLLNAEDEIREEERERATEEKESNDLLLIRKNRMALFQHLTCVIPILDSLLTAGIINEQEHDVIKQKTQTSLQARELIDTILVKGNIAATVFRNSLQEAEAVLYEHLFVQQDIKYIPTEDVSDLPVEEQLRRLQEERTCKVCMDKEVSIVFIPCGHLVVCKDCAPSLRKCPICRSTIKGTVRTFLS
UniProt O00571: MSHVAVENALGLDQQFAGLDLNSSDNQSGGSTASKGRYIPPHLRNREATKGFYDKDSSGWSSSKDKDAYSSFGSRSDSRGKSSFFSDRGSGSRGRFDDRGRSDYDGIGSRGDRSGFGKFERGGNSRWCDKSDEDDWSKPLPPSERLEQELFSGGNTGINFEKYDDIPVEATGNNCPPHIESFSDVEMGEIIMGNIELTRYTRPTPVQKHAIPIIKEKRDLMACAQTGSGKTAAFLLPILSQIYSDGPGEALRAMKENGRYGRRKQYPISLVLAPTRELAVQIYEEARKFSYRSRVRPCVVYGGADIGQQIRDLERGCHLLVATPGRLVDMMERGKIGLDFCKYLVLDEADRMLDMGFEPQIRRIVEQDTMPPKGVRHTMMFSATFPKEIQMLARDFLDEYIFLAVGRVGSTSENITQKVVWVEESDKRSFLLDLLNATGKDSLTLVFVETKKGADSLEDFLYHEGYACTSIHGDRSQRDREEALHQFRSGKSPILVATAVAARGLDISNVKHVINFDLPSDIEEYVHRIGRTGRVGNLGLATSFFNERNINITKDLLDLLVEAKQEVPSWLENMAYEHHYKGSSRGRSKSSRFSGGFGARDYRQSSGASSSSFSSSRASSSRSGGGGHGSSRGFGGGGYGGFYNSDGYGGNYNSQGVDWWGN

One test has as its target tagged HAX1 (whole HAX1) (UniProt O00165). Description: co-IP; HeLa cells co-transfected with tagged HAX1 and the tagged partner, lysed 24 h later in NP-40 buffer (10 mM Tris/Cl pH 7.5, 150 mM NaCl, 0.5 mM EDTA, 0.5% Nonidet P40); anti-FLAG M2 beads, anti-c-Myc magnetic beads or GFP-trap; Western blot. (In general: In western blotting, separated proteins are transferred to a membrane and probed.)

In test [1] the target is platelet-derived growth factor subunit B (PDGFB), two-hybrid bait (UniProt P01127). Description: two-hybrid; automated high-throughput yeast two-hybrid system (Myrexis); 27 HAX1 baits screened, HAX1 also prey from 21 baits; nine libraries (brain, substantia nigra, hypothalamus, hippocampus, spleen, liver, colon, testis, breast cancer/prostate cancer).
Test [2] concerns the target baculoviral IAP repeat-containing 3 (BIRC3), two-hybrid bait (UniProt Q13489). Described as above.
Test [3] deals with DDX3X RNA helicase, two-hybrid bait (UniProt O00571). The description is as above.
Test [4] addresses T1, clock circadian regulator (CLOCK), two-hybrid bait (UniProt O15516).
T1 sequence: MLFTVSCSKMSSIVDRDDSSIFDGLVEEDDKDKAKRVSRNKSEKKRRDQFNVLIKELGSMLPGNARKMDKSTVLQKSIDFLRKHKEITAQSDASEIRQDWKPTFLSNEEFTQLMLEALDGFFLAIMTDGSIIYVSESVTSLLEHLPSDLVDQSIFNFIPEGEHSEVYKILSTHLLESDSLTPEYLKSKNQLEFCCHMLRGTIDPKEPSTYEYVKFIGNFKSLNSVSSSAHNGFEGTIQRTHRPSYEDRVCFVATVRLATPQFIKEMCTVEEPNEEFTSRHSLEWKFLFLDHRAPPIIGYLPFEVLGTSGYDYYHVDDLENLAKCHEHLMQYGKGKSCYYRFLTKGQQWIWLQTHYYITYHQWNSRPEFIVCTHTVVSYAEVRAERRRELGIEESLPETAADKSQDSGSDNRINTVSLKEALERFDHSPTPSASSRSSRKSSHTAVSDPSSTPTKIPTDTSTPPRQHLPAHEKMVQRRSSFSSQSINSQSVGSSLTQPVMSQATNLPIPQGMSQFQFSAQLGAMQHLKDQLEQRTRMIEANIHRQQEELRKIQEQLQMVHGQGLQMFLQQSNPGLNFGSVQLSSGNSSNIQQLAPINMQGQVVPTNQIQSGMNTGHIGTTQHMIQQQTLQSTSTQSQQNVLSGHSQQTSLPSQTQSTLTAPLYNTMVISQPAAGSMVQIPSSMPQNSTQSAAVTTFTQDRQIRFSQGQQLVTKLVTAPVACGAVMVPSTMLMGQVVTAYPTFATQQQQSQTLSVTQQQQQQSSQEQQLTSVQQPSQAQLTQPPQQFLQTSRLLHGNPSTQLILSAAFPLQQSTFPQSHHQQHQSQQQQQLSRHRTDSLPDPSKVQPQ
The description is as above.

Test [5] addresses HCLS1-associated protein X-1 (HAX1), yeast two-hybrid baits and prey clones (human) (UniProt O00165). The test is described as above.

No constants are given. Whether binding was seen depends on the method and setting. For some of these results: In cells and extracts the contact can be indirect. Some binding calls cover weakened binding; strength is not graded here. For some of these results: Sequences can lack the tags named with a protein.

On to “sequestosome (SQSTM1), GFP construct (from UniProt Q13501 1-440)”, for which, in the test with tagged HAX1 (whole HAX1), the binding entry is reported as “binds”.

On to “DDX3X RNA helicase, FLAG-tagged construct (from UniProt O00571 1-662)”, for which, in the test with tagged HAX1 (whole HAX1), the binding result is “binds”.

With “HCLS1-associated protein X-1 (HAX1), yeast two-hybrid baits and prey clones (from UniProt O00165 1-279)”, the binding result in test [1], in test [2], in test [3] and in test [4] was “binds” throughout.

B1: FEZ1, two-hybrid fusion (protein, UniProt Q99689 1-392)
chain: MEAPLVSLDEEFEDLRPSCSEDPEEKPQCFYGSSPHHLEDPSLSELENFSSEIISFKSMEDLVNEFDEKLNVCFRNYNAKTENLAPVKNQLQIQEEEETLQDEEVWDALTDNYIPSLSEDWRDPNIEALNGNCSDTEIHEKEEEEFNEKSENDSGINEEPLLTADQVIEEIEEMMQNSPDPEEEEEVLEEEDGGETSSQADSVLLQEMQALTQTFNNNWSYEGLRHMSGSELTELLDQVEGAIRDFSEELVQQLARRDELEFEKEVKNSFITVLIEVQNKQKEQRELMKKRRKEKGLSLQSSRIEKGNQMPLKRFSMEGISNILQSGIRQTFGSSGTDKQYLNTVIPYEKKASPPSVEDLQMLTNILFAMKEDNEKVPTLLTDYILKVLCPT
On to B1, for which, in test [5], the binding entry was “binds”.
